Assay results published in the supplement of paper PMC3334620.
In all, about 33,000 sequences were measured (“E-score (-0.5 to 0.5)”: median about -0.0059, highest 2% from about 0.26 on). This is one part of the list.

These sequences were tested against T1, Cin5 (UniProt P40917) (assay: PBM E-score (8-mer binding enrichment) (E-score (-0.5 to 0.5)); higher = stronger / more preferred TF binding). Details: protein concentration: 100 nM; construct: GST-full length.
T1 sequence: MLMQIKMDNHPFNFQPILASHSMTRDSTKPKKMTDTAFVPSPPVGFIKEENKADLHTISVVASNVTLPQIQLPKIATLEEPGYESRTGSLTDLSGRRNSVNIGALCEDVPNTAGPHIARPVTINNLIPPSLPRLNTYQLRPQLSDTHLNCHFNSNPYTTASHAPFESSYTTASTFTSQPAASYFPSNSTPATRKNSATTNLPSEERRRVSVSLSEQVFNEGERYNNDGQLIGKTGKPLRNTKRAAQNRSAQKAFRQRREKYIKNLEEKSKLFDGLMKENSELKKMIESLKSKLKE
Outline: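 For each ungapped eight-base word taken together with its reverse complement, the Universal PBM Analysis Suite assigned an E-score. Binding data came from GST-tagged yeast transcription factors, applied at about 100-200 nM, on universal all-10-mer Agilent arrays made double-stranded by primer extension. Fluorescent anti-GST marked bound protein, and scans were normalised with masliner.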

| Sequence | PBM E-score |
| --- | --- |
| GAAACATA | 0.253 |
| CGATGACA | 0.0915 |
| CTGGCGGA | -0.172 |
| GTGCGGCA | -0.149 |
| ACAATAGC | -0.0152 |
| CCGTCTGA | -0.164 |
| CCGTTTGA | -0.17 |
| ACTTAAGA | 0.0404 |
| CCGCTCAC | -0.1 |
| GCTTACAC | 0.391 |
| ATCCTGCC | -0.059 |
| ACGTTGGG | -0.0381 |
| GGAACAAC | 0.0525 |
| TCAGGAGA | 0.00383 |
| CCGTAACG | -0.112 |
| ACGGTATA | 0.00213 |
| GAGGGAAC | -0.235 |
| GAGGTAAA | 0.073 |
| AACGTGTC | -0.11 |
| GGAGAGCC | -0.344 |
| GAAACGTA | 0.141 |
| CCGAGGAC | -0.142 |
| GAACAGCA | 0.0701 |

Retrieved one by one from the entries so far, 2 records:

| Sequence | PBM E-score |
| --- | --- |
| GCTTACAC | 0.391 |
| ACTTAAGA | 0.0404 |

Later entries

| Sequence | PBM E-score |
| --- | --- |
| ACAGTCGT | -0.129 |
| GTGGCGAA | -0.0226 |
| AAGCGACT | -0.0539 |
| GCTCAACA | 0.00252 |
| ATGACAAC | 0.183 |
| AAAATTCC | 0.19 |
| GTTTCCCA | 0.146 |
| GATGCGAC | 0.00124 |
| CACGAAGC | -0.0589 |
| ACTTGCCT | 0.0696 |
| CGCGGCAC | -0.0168 |
| ACGGGGTA | -0.0731 |
| GCATTTGA | 0.0701 |
| ACTTCGTC | 0.174 |
| AGTTCCGA | 0.123 |
| CCGACTTC | -0.279 |
| TGCATAAA | 0.088 |
| AGGACCTC | -0.0477 |
| GGTTGTCA | 0.0406 |
| AAGACTCT | 0.106 |
| CTAGGACA | -0.0799 |
| AAGCTTCA | -0.0361 |
| ACAATACT | 0.237 |

Another view of some results above:
Sequence	PBM E-score
CTGGCGGA	-0.172
GTGCGGCA	-0.149
ACAATAGC	-0.0152
CCGTCTGA	-0.164
CCGTTTGA	-0.17
ACTTAAGA	0.0404
CCGCTCAC	-0.1
GCTTACAC	0.391
ATCCTGCC	-0.059
ACGTTGGG	-0.0381
GGAACAAC	0.0525
TCAGGAGA	0.00383
CCGTAACG	-0.112
ACGGTATA	0.00213
GAGGGAAC	-0.235
GAGGTAAA	0.073
AACGTGTC	-0.11
GGAGAGCC	-0.344
GAAACGTA	0.141
CCGAGGAC	-0.142
GAACAGCA	0.0701
ACAGTCGT	-0.129
GTGGCGAA	-0.0226
AAGCGACT	-0.0539
GCTCAACA	0.00252
ATGACAAC	0.183
AAAATTCC	0.19
GTTTCCCA	0.146
GATGCGAC	0.00124
CACGAAGC	-0.0589
ACTTGCCT	0.0696
CGCGGCAC	-0.0168
ACGGGGTA	-0.0731
GCATTTGA	0.0701
ACTTCGTC	0.174
AGTTCCGA	0.123
CCGACTTC	-0.279
TGCATAAA	0.088
AGGACCTC	-0.0477
GGTTGTCA	0.0406
AAGACTCT	0.106
CTAGGACA	-0.0799

Some of the entries so far, tab-delimited.
Sequence	PBM E-score
GTGGCGAA	-0.0226
AAGCGACT	-0.0539

Further records

| Sequence | PBM E-score |
| --- | --- |
| CACCGCCC | 0.00407 |
| CTTGCTGA | 0.0854 |
| CCTATAGG | -0.0993 |
| ACACGGAT | 0.128 |
| CGCGAGTC | -0.102 |
| CGAGTGTA | -0.0391 |
| GCAAACCC | -0.148 |
| AAACGGGT | 0.0105 |
| GTAAGGGA | -0.0123 |
| CTTAATCA | 0.205 |
| AACGTTGC | 0.0588 |
| AGCAGCGA | 0.0135 |
| ACGACATA | 0.0814 |
| ATCGCAGC | 0.0659 |
| GCTGTAAA | -0.0756 |
| AAACGGGG | 0.0392 |
| ATACACAA | 0.122 |
| CCGGCAGC | -0.115 |
| AGGCTCCG | -0.0483 |
| CTACGCAG | -0.0942 |
| CGTCTGGC | -0.131 |
| AGGTACAG | -0.0805 |
| AGTGGCTC | 0.0536 |

| Sequence | PBM E-score |
| --- | --- |
| CATCTGTA | 0.0354 |
| AAGAACTA | 0.089 |
| CACCAACA | 0.163 |
| TCGAGTCA | -0.0465 |
| GATATTGA | 0.0812 |
| TAGAAACA | -0.0267 |
| GAATTTAA | 0.0554 |
| GTCGCCAA | -0.0554 |
| TCACAACA | 0.0495 |
| CCACTCAA | 0.0609 |
| CCGCCTGC | -0.288 |
| ATATGACA | 0.219 |
| CTACCACA | -0.0341 |
| CATGGCGA | -0.0534 |
| ATGTTGGG | 0.0177 |
| AGGAAGGA | -0.221 |
| CGGGTTCC | -0.0262 |
| AACTGAAC | 0.113 |
| AACCCTTA | 0.168 |
| TACAGCAA | 0.11 |
| CCAGCTGA | 0.141 |
| CATAAAAC | 0.036 |
| GGGGGAGA | -0.215 |

| Sequence | PBM E-score |
| --- | --- |
| ATTCGACA | -0.116 |
| AGCCGCGG | 0.103 |
| AGGACGGC | -0.28 |
| ACACCTTC | 0.0317 |
| GCTAGGCA | -0.305 |
| CTCGTCAG | 0.0601 |
| CCGCTCTC | -0.204 |
| ACATGCCA | 0.165 |
| AATAATTC | 0.261 |
| ATCCCTGC | -0.109 |
| AAATTAGG | 0.102 |
| AGGACTAC | -0.205 |
| ACCCAGAA | 0.0954 |
| GCCTCTGA | -0.13 |
| ATTTAGGA | -0.031 |
| AAGAGTCC | -0.181 |
| CAGGCACC | -0.258 |
| ATAATGAA | 0.254 |
| CGCCTTGC | -0.139 |
| AGGATTTG | -0.0503 |
| ATAGCAGG | -0.0202 |
| AACTCAGG | -0.129 |
| CGCTGTAG | -0.0977 |

| Sequence | PBM E-score |
| --- | --- |
| CGTCTTAG | -0.259 |
| AGGAGATA | -0.00724 |
| GGGCCGTA | -0.113 |
| ACGCGGAG | -0.0136 |
| CGGTCCCC | -0.285 |
| GACCAGAC | -0.182 |
| AACGTATA | 0.152 |
| CGCATGAG | -0.103 |
| ATTACAAT | 0.153 |
| ATTCGTCG | 0.102 |
| TGGTGTAA | 0.179 |
| CACTCCCA | -0.0158 |
| AACTAAAA | 0.208 |
| AAACTACG | -0.0524 |
| CGGAAAAC | 0.0779 |
| CATAGATC | -0.064 |
| CGTTCGAA | 0.131 |
| AATGCAGA | 0.0744 |
| CCCCTCGC | -0.182 |
| GGACTACA | -0.00389 |
| GCTGATAA | 0.0262 |
| ATGGGTAC | -0.0604 |
| TAAAGCGA | 0.192 |

| Sequence | PBM E-score |
| --- | --- |
| AACCATCT | -0.0707 |
| AGTTTAGG | -0.151 |
| CACGATGC | -0.224 |
| GAGCGGTA | -0.0453 |
| CTTCGTCC | -0.0338 |
| ACAAAAGA | 0.164 |
| AGTCCGCA | -0.139 |
| CGTCCGTC | -0.208 |
| TCTTGTCA | 0.0205 |
| TAAATTTA | 0.206 |
| CGATAATA | 0.22 |
| GATCACTA | -0.00025 |
| AACGTCCG | -0.0391 |
| GTTCCCTA | -0.14 |
| ACTACGAA | 0.00813 |
| GCTACCTA | 0.00956 |
| GTGATGCA | 0.181 |
| GTGGAGAA | -0.0808 |
| TACGCGTA | -0.00365 |
| CCTTCGCA | -0.227 |
| CGGGTTGA | -0.0861 |
